PubChem BioAssay AID686938 | Drosophila RNAi Screening Center | 2013

- Purpose: 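Looking for CRAC channel components and the factors controlling them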 (primary screen)
- System: Drosophila S2R+ cells
- Reagent: long dsRNA against Drosophila genes, about 0.25 µg dsRNA per well, roughly 10,000 cells
- Duration: 5 days of knock-down before the calcium assay
- Conditions: thapsigargin (SERCA pump blocker) to empty calcium stores; entry signal taken 4 min after adding it
- Detection: 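Per-well fluo-4 fluorescence in two replicates, unnormalised, measured in resting cells and 4 min after store depletion by the SERCA blocker thapsigargin; ratio of the two present in few wells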
- Scale: calcium entry signal: higher = stronger calcium signal after store depletion; entry to resting ratio: higher = more calcium entry relative to resting level; resting calcium signal: higher = higher resting calcium signal
- Hit rule: 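Hit if the duplicate-averaged plate z-score for entry over resting signal is under −3; wells with weak total dye signal (Fmax z < −2) or more than 5 off-targets removed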
- Meaning of the calls: active = strongly reduced calcium entry; inactive = no strong reduction
The screen tested about 23,000 reagents; shown is a random part of those that have a named target and a result. In the full data, 75 (0.33%) are marked active. 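Raw plate signals without normalisation; calls rest on plate z-scores that were not deposited; ratio present for only 364 wells.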 A number with no mark means an inactive call. Not stated in the record: the dose of the treatment.

| gene | dsRNA | calcium entry signal, replicate 1 (fluorescence units) | calcium entry signal, replicate 2 (fluorescence units) | entry to resting ratio | resting calcium signal, replicate 1 (fluorescence units) | resting calcium signal, replicate 2 (fluorescence units) |
| --- | --- | --- | --- | --- | --- | --- |
| CG17242 | DRSC00493 | 3.09e7 | 2.72e7 | – | 1.41e7 | 1.24e7 |
| Cpr64Ac (Cuticular protein 64Ac) | DRSC08462 | 3.82e7 | 4.14e7 | – | 2.02e7 | 1.85e7 |
| CG44153 | DRSC01118 | 3.79e7 | 5.52e7 | – | 1.97e7 | 2.38e7 |
| CG44153 | DRSC02228 | 3.97e7 | – | – | 2.04e7 | – |
| CG44153 | DRSC02229 | 1.97e7 | 3.32e7 | – | 8.61e6 | 1.45e7 |
| CG44153 | DRSC02231 | 3.34e7 | 5.38e7 | – | 1.55e7 | 2.23e7 |
| CG44153 | DRSC02233 | 2.66e7 | 3.54e7 | – | 1.33e7 | 1.61e7 |
| CG44153 | DRSC02902 | 1.89e7 | 2.91e7 | – | 9.02e6 | 1.32e7 |
| CG44153 | DRSC02903 | 2.24e7 | 3.16e7 | – | 1.12e7 | 1.39e7 |
| Nepl13 (Neprilysin-like 13) | DRSC15632 | 4.01e7 | 5.48e7 | – | 1.86e7 | 2.26e7 |
| Smg5 (Smg5 nonsense mediated mRNA decay factor) | DRSC03124 | 3.77e7 | – | – | 2.00e7 | – |

Not a retest: 5 of the entries above.
| gene | dsRNA | calcium entry signal, replicate 1 (fluorescence units) | calcium entry signal, replicate 2 (fluorescence units) | entry to resting ratio | resting calcium signal, replicate 1 (fluorescence units) | resting calcium signal, replicate 2 (fluorescence units) |
| --- | --- | --- | --- | --- | --- | --- |
| CG44153 | DRSC02231 | 3.34e7 | 5.38e7 | – | 1.55e7 | 2.23e7 |
| CG44153 | DRSC02233 | 2.66e7 | 3.54e7 | – | 1.33e7 | 1.61e7 |
| CG44153 | DRSC02902 | 1.89e7 | 2.91e7 | – | 9.02e6 | 1.32e7 |
| CG44153 | DRSC02903 | 2.24e7 | 3.16e7 | – | 1.12e7 | 1.39e7 |
| Nepl13 (Neprilysin-like 13) | DRSC15632 | 4.01e7 | 5.48e7 | – | 1.86e7 | 2.26e7 |

More records:
| gene | dsRNA | calcium entry signal, replicate 1 (fluorescence units) | calcium entry signal, replicate 2 (fluorescence units) | entry to resting ratio | resting calcium signal, replicate 1 (fluorescence units) | resting calcium signal, replicate 2 (fluorescence units) |
| --- | --- | --- | --- | --- | --- | --- |
| CG11679 | DRSC19415 | 4.08e7 | 4.32e7 | – | 1.84e7 | 2.01e7 |
| CG12817 | DRSC14555 | 3.40e7 | 3.06e7 | – | 1.65e7 | 1.65e7 |
| mthl15 (methuselah-like 15) | DRSC01120 | 3.72e7 | 4.99e7 | – | 1.86e7 | 2.27e7 |
| CG31199 | DRSC15284 | 3.86e7 | 3.71e7 | – | 1.96e7 | 1.64e7 |
| Panx (Panoramix) | DRSC04563 | 3.06e7 | 5.31e7 | – | 1.50e7 | 2.18e7 |
| ERp60 (Endoplasmic reticulum p60) | DRSC07309 | 3.12e7 | 3.81e7 | – | 1.41e7 | 1.40e7 |
| loopin-1 | DRSC06888 | 3.53e7 | 3.12e7 | – | 1.62e7 | 1.50e7 |
| CG42262 (retired record) | DRSC17628 | 2.59e7 | 3.79e7 | – | 1.26e7 | 1.68e7 |
| CG42262 (retired record) | DRSC17974 | 3.43e7 | 4.59e7 | – | 1.67e7 | 2.01e7 |
| vilya | DRSC18588 | 3.39e7 | 5.34e7 | 1.9 | 1.80e7 | 2.09e7 |
| nAChRalpha7 (nicotinic Acetylcholine Receptor alpha7) | DRSC20078 | 4.34e7 | 4.42e7 | – | 2.23e7 | 1.88e7 |
| nAChRalpha7 (nicotinic Acetylcholine Receptor alpha7) | DRSC20081 | 5.07e7 | 5.41e7 | – | 2.51e7 | 2.46e7 |
| sns (sticks and stones) | DRSC06423 | 2.96e7 | 3.95e7 | – | 1.60e7 | 1.63e7 |
| sns (sticks and stones) | DRSC07687 | 3.11e7 | 4.33e7 | – | 1.58e7 | 1.69e7 |
| sns (sticks and stones) | DRSC07688 | 3.77e7 | 3.07e7 | – | 1.89e7 | 1.58e7 |
| sns (sticks and stones) | DRSC07689 | 3.41e7 | 2.96e7 | – | 1.60e7 | 1.45e7 |
| sns (sticks and stones) | DRSC07691 | 3.14e7 | 3.02e7 | – | 1.49e7 | 1.46e7 |
| sns (sticks and stones) | DRSC07692 | 3.08e7 | 3.49e7 | – | 1.37e7 | 1.50e7 |
